These are yes or no findings as the source states them, for the method shown. Binding seen in cells or lysates may run through a third protein. Here binding means that the protein was enriched with, or labelled near, the bait; the list need not be complete. Tags and fused reporters may be left off the sequences shown.
T1: Mcm4-GFP (Saccharomyces cerevisiae) (UniProt P30665)
T1 sequence: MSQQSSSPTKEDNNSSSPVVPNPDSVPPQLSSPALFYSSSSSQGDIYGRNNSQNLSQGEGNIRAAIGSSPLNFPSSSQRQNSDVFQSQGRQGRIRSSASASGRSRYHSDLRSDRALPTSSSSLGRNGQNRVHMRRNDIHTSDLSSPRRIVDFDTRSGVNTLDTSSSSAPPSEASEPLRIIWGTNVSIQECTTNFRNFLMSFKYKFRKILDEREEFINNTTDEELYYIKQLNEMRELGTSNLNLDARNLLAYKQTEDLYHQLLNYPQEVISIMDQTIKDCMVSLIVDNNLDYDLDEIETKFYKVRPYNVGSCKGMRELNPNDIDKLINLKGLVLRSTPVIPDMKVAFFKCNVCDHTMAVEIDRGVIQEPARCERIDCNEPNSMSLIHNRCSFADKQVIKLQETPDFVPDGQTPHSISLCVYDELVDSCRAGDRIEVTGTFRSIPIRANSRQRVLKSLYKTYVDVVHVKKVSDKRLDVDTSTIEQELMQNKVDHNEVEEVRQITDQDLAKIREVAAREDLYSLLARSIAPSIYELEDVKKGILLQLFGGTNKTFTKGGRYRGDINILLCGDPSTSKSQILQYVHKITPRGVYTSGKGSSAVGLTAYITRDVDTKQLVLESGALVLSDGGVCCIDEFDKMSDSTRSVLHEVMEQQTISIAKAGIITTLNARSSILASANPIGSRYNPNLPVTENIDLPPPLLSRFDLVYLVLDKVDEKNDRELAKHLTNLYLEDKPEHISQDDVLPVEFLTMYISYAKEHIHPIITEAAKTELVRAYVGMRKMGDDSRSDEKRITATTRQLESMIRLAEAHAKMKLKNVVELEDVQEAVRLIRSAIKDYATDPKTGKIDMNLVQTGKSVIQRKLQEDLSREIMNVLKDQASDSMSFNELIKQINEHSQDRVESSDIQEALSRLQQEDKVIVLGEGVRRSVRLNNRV

Sequences of proteins named here, by UniProt entry; tags and fusion partners are left off.
UniProt P22216: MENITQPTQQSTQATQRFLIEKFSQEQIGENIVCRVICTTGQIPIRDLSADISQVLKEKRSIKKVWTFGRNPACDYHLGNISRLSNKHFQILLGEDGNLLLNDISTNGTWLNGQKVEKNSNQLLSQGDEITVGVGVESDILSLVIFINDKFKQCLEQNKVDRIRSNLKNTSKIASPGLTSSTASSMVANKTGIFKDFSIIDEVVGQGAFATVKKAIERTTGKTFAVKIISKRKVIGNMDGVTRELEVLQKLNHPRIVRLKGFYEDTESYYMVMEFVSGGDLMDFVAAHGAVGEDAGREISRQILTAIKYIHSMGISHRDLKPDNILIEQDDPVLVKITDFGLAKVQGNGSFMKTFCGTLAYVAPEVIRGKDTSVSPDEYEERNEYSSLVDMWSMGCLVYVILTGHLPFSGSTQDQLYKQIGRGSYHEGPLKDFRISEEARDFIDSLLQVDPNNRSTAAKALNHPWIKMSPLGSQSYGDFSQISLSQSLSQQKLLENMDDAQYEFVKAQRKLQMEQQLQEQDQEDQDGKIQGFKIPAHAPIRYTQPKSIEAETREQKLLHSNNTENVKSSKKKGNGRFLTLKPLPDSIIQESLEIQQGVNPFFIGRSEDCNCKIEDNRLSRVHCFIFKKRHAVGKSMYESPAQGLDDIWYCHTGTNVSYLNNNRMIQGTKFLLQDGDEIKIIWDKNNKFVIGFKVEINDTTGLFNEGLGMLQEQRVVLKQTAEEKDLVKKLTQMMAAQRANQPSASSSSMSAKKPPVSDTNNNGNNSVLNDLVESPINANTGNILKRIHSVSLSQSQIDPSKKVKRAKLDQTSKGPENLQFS


Biological target: T1, Mcm4-GFP (Saccharomyces cerevisiae)
Test: affinity purification with mass spectrometry; Mcm4-GFP immunoprecipitated with GFP-trap beads under native conditions from asynchronous cultures treated or not with 0.025% MMS for 2 hours; untagged control; four biological repeats

Row | Molecule | binding
1 | Rad53 (from UniProt P22216 1-821) | binds
2 | Rnr3 (protein, UniProt P21672 1-869) MYVIKRDGRKEPVQFDKITSRITRLSYGLDPNRIDAVKVTQRIISGVYSGVTTVELDNLAAETCAYMTTVHPDYATLAARIAISNLHKQTTKQFSKVIEDLHDWINPATGKHAPMISDEIYNIVMENKDTLNSAIVYDRDFQYTYFGFKTLERSYLLRLNGEVAERPQHLVMRVALGIHGSDIESVLKTYNLMSLRYFTHASPTLFNAGTPHPQMSSCFLIAMKDDSIEGIYDTLKECAMISKTAGGVGLHINNIRSTGSYIAGTNGTSNGLIPMIRVFNNTARYVDQGGNKRPGAFALFLEPWHADIFDFVDIRKTHGKEEIRARDLFPALWIPDLFMKRVQEDGPWTLFSPSAAPGLDDVWGDEFEELYTRYEREGRGKTIKAQKLWYAILQAQTETGTPFMVYKDACNRKTNQQNLGTIKSSNLCCEIVEYSSPDETAVCNLASIALPAFVEVSEDGKTASYNFERLHEIAKVITHNLNRVIDRNYYPVPEARNSNMKHRPIALGVQGLADTYMMLRLPFESEEAQTLNKQIFETIYHATLEASCELAQKEGKYSTFEGSPASKGILQFDMWNAKPFGMWDWETLRKDIVKHGLRNSLTMAPMPTASTSQILGYNECFEPVTSNMYSRRVLSGEFQVVNPYLLRDLVDLGIWDDSMKQYLITQNGSIQGLPNVPQELKELYKTVWEISQKTIINMAADRAIYIDQSHSLNLFLQAPSMGKITSMHFYGWKKGLKTGMYYLRTQAASAAIQFTIDQEVADQAATHIASVSELDRPVYVPKGTKFSEQKAASALTESSDNEKDASPVPSEQSSVSSAMSNVKLEDSVAPAVPTETIKEDSDEKKCDIYNEKVIACTAPTPEACESCSG | binds
3 | Crt10 (protein, UniProt Q08226 1-957) MPPQIPNENDDLFTRWLKSRAIIQRAVSTRECFDSEVFLASGGWNITNEIITLKKYYQLKWPNSSCNSFHPKTVEFIKERLHNLEEHDSSWKIPNPAYSFKKAFLEDTKSAFSNLEPVWGPSRLLNPAELLLPQDEKLLVQEIPLEFAPFQYTNRFAYGGLQFKNNLFVTYGSYSFLAAGQCVEVHNFDILLNVSSLEICHALLPVIIPDDGDVRNFRNSSYVKFKDTQFNSIPELCSINFMKICNFMHQDFLLACGDNGIVYIWEINKVIKIFNKFTSDILGGKDNSRERYINVDPYMVLRVEESCWSVDVIDINGIIYIAVGHNKPGVTVFAFDKDVKKERRYIRPLDLPSSHNVPCVNFVPNSKDSVGYITLSYCSIFGNVVTVKLKEHDCTILTSFLDTQFFGDDLWTITPLTKKDFAKVDNFELLNLNYQDGFKESMLYSICRDDFLLGYYCDNAYLSGNFGIGTLLNQFQVPVTDLRLTSSAGIPDEVIPLRFTSFDRNYTTTGSIKYEYSREDFALILHAGDLDDMNDAVTKNTSCEQHLHQWTFWEDSGYKHYRATERGFSKYKDIINTFPQLITPSGRNKTSQYQNTSGRKICEPSTYKLTDLENDIEDISREFNRSIRNLKMDKQRQLRTSKEFKSLSSVNHIPNIESGNFLWYNTDAAADWRTLFGKDLNTVLKDPEICSLQLNSTEEDDVNSDPENEESGSSLTSFQRRYRDTEQRAHLKSESQKSWGFHNYVRNVKRLLESAVPGSEDSPLGYQLSEMHDEFFFLTTAHRLVLMKANPLIIISATHHEIFPLDGVVTCASKSLLQALNRINFVCHIKELNCIAVASQLGLISLLRLTEYRGIYSFRQEYILGWEVQDPVNPSPECRCNRNLFDAPMYGADGESSDTYCGVCDVYFPMGDICGLDYTYASDSEELKRKGYATLYVASRGSLRAFKITTEHGTTQQ | binds
